Consider six molecules from PMC13284301.

Chains of the proteins cited; added tags and fusions are not shown. Lines headed by an entry give the natural chain unless they say otherwise; changes in a name come on top.
UniProt P41376: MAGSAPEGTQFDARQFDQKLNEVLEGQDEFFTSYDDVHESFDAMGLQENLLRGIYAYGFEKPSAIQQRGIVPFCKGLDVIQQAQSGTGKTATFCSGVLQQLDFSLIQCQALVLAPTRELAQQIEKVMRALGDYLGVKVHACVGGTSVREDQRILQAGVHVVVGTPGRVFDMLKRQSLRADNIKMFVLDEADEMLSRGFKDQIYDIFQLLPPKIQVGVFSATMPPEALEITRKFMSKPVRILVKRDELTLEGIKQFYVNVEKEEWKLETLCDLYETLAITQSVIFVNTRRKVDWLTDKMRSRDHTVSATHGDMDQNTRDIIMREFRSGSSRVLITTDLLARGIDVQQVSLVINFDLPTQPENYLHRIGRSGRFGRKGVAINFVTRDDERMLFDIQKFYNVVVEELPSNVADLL
UniProt P41377: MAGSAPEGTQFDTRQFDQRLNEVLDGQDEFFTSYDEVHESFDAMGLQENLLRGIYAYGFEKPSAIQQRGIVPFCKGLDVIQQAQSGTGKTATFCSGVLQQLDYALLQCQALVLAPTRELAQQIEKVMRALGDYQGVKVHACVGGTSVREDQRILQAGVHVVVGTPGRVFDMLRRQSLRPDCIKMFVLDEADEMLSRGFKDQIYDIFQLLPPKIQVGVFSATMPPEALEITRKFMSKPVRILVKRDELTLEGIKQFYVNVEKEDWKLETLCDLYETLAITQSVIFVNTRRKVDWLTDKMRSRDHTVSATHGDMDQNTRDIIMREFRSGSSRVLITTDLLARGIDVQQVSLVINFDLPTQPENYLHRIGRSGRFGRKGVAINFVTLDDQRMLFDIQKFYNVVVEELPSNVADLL

In assay [1] the target is T1, SMG7-YFP (Arabidopsis thaliana) (UniProt A9QM73).
T1 sequence: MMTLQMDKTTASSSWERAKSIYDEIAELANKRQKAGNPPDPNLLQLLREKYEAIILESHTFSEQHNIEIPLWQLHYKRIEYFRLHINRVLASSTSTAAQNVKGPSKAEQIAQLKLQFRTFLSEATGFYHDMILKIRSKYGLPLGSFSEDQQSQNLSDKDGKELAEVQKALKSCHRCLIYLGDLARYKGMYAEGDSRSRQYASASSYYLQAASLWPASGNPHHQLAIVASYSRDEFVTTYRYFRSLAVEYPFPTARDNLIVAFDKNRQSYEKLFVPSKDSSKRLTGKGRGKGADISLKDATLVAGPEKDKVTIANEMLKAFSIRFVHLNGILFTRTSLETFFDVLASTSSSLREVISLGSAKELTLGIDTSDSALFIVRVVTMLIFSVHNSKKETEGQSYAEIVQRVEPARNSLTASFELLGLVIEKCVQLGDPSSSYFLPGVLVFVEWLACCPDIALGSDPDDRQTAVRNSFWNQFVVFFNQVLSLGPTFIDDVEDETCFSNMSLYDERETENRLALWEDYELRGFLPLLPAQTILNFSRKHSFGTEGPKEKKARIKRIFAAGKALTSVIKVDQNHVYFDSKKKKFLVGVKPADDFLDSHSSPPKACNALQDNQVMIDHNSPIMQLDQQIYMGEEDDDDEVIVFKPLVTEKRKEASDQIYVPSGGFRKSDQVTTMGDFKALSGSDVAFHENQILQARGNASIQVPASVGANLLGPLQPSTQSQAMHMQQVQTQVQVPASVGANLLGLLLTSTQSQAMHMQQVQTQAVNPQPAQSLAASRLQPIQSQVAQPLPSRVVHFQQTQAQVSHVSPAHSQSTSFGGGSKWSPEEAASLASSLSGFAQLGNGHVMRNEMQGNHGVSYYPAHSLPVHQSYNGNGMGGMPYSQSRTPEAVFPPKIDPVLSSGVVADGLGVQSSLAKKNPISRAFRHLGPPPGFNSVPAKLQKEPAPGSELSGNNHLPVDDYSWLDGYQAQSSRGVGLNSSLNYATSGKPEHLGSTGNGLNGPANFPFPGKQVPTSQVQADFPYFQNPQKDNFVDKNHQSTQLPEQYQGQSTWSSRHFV
Put plainly: FRET or BRET; FLIM-FRET, YFP on SMG7 as donor and TagRFP on eIF4A as acceptor, transiently expressed in N. tabacum leaf epidermal cells; shortening of the YFP fluorescence lifetime. A general note: BRET reads energy transfer from a luciferase to a nearby fluorophore.

The target of assay [2] is T2, YFP-SMG7^(K77E R185E) (Arabidopsis thaliana) (UniProt A9QM73).
T2 sequence: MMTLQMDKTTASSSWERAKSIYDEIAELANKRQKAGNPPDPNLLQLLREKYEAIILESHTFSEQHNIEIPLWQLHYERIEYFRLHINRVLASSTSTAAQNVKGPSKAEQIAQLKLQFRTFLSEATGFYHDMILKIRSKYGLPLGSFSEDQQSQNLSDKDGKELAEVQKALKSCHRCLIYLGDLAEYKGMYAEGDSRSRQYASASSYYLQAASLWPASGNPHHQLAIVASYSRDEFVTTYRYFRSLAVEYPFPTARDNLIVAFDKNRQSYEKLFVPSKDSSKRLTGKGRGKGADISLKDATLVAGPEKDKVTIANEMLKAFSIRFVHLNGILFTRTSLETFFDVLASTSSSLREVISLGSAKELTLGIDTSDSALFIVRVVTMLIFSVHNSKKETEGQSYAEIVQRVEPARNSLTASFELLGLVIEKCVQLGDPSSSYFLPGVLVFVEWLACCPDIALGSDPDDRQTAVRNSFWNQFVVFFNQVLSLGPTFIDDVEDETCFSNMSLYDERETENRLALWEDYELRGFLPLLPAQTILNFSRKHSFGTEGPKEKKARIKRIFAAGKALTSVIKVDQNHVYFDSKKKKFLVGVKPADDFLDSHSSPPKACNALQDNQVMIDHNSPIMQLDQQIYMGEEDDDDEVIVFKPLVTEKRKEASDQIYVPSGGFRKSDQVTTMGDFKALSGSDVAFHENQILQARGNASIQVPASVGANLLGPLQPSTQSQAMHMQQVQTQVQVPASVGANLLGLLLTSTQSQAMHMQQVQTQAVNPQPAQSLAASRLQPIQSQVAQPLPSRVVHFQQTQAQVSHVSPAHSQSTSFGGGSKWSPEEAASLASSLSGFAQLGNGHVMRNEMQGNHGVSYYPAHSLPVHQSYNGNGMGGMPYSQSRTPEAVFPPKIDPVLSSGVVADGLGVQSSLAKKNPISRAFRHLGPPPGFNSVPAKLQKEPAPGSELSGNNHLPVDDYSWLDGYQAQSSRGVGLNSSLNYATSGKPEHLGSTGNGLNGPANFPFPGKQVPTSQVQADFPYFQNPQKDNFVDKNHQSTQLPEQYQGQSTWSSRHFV
The assay is described as above.

Assay [3] concerns the target eIF4A1-YFP (Arabidopsis thaliana) (UniProt P41376). Put plainly: co-IP; GFP-Trap Magnetic Agarose on extracts of leaves and inflorescences of SMG7-MYC, eIF4A1-YFP and SMG7-MYC eIF4A1-YFP plants; 50 mM Tris-HCl pH 7.5, 150 mM NaCl, 0.1% Nonidet P-40, 10% glycerol, 4 °C; blots with anti-MYC and anti-GFP.
For assay [4], the target named is T3, nYFP-SMG7 (Arabidopsis thaliana) (UniProt A9QM73).
T3 sequence: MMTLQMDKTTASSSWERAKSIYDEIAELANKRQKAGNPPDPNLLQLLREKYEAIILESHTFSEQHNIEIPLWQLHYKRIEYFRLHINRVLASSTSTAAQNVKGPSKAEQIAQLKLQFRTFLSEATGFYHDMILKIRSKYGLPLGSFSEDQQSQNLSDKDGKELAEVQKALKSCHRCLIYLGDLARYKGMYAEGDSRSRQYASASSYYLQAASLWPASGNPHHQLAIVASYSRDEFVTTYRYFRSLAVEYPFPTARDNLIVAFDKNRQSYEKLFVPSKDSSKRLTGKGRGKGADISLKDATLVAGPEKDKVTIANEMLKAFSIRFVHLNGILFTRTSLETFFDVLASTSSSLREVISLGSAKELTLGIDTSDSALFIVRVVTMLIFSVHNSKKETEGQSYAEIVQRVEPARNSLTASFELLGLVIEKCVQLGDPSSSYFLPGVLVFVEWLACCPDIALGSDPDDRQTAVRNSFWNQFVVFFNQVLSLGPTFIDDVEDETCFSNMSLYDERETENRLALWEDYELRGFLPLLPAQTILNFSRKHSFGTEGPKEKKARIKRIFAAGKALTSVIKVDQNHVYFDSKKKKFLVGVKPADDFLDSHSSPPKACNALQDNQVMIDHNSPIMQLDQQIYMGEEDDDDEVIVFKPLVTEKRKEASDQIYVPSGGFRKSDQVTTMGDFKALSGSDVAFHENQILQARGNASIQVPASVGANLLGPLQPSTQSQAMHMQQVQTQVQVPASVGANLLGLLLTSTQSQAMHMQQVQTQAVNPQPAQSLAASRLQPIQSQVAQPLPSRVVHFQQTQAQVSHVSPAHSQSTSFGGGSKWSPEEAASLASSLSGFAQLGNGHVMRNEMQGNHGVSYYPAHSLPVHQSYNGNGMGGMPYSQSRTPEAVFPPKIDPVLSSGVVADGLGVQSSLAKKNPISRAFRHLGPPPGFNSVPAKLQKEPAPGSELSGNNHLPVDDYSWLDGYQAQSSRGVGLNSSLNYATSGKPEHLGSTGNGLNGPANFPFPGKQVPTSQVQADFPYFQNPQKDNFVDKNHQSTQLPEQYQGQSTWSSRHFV
Put plainly: split reporter; BiFC in transfected Arabidopsis mesophyll protoplasts, nYFP on SMG7 and cYFP on the partner, imaged by confocal microscopy after 16 h.

Results are given in words; binding and its absence hold for the method and conditions named. Binding seen in cells or lysates may run through a third protein. Some binding calls cover weakened binding; strength is not graded here. Sequences can lack the tags named with a protein.

For the molecule “eIF4A1^S146A (from UniProt P41376 1-412)”, the binding result in assay [1] is “binds”.

For the molecule “eIF4A1^(T145A S146A) (from UniProt P41376 1-412)”, the binding result in assay [1] is listed as “no binding”.

Turning to “eIF4A1-TagRFP (from UniProt P41376 1-412)”, the binding entry in assay [1] is given as “binds”; in assay [2], “no binding”.

For the molecule “eIF4A2-TagRFP (from UniProt P41377 1-412)”, the values for the binding entry in assay [1] and in assay [2] were “binds” and “no binding”, respectively.

B1: SMG7-MYC (protein, UniProt A9QM73 1-1059)
chain: MMTLQMDKTTASSSWERAKSIYDEIAELANKRQKAGNPPDPNLLQLLREKYEAIILESHTFSEQHNIEIPLWQLHYKRIEYFRLHINRVLASSTSTAAQNVKGPSKAEQIAQLKLQFRTFLSEATGFYHDMILKIRSKYGLPLGSFSEDQQSQNLSDKDGKELAEVQKALKSCHRCLIYLGDLARYKGMYAEGDSRSRQYASASSYYLQAASLWPASGNPHHQLAIVASYSRDEFVTTYRYFRSLAVEYPFPTARDNLIVAFDKNRQSYEKLFVPSKDSSKRLTGKGRGKGADISLKDATLVAGPEKDKVTIANEMLKAFSIRFVHLNGILFTRTSLETFFDVLASTSSSLREVISLGSAKELTLGIDTSDSALFIVRVVTMLIFSVHNSKKETEGQSYAEIVQRVEPARNSLTASFELLGLVIEKCVQLGDPSSSYFLPGVLVFVEWLACCPDIALGSDPDDRQTAVRNSFWNQFVVFFNQVLSLGPTFIDDVEDETCFSNMSLYDERETENRLALWEDYELRGFLPLLPAQTILNFSRKHSFGTEGPKEKKARIKRIFAAGKALTSVIKVDQNHVYFDSKKKKFLVGVKPADDFLDSHSSPPKACNALQDNQVMIDHNSPIMQLDQQIYMGEEDDDDEVIVFKPLVTEKRKEASDQIYVPSGGFRKSDQVTTMGDFKALSGSDVAFHENQILQARGNASIQVPASVGANLLGPLQPSTQSQAMHMQQVQTQVQVPASVGANLLGLLLTSTQSQAMHMQQVQTQAVNPQPAQSLAASRLQPIQSQVAQPLPSRVVHFQQTQAQVSHVSPAHSQSTSFGGGSKWSPEEAASLASSLSGFAQLGNGHVMRNEMQGNHGVSYYPAHSLPVHQSYNGNGMGGMPYSQSRTPEAVFPPKIDPVLSSGVVADGLGVQSSLAKKNPISRAFRHLGPPPGFNSVPAKLQKEPAPGSELSGNNHLPVDDYSWLDGYQAQSSRGVGLNSSLNYATSGKPEHLGSTGNGLNGPANFPFPGKQVPTSQVQADFPYFQNPQKDNFVDKNHQSTQLPEQYQGQSTWSSRHFV
B1: the binding result in assay [3] is “binds”.

B2: eIF4B1-cYFP (protein, UniProt Q9LIN5 1-532)
chain: MSKAWGGIGIGAWADEAERADEEQAAEATAATADTQSFPSLREAAAATATSGKSRKMKKMSLSEFTTGAYTAPGGRNSVGLTQQEILQLPTGPRQRSEEEMQPGRLGGGFSSYGGRSGGRIGRDRDDSDGSWSGGGGGGGRRPYGGGFDDDRRGNQSRVSDFPQPSRADEVDDWGKEKKPLPSFDQGRQGRYSGDGGGFGGGGSGFGGGGGGGGGGLSRADDVDNWGAGKRQAPVRSSTFGSSFGDSGQEERRRLVLEPRKVESGGSETPPVVEKTSKPNPFGAARPREDVLAEKGLDWKKIDSEIEAKKGSSQTSRPTSAHSSRPSSAQSNRSESSGLNNVVKPRPKVNPFGDAKPREVLLEEQGKDWRKMDLELEHRRVDRPETEEEKMLKEEIEELRKKLEKESVAPEIKESDQEPGSNNNHNDLPEIIRGKEKDLEILTRELDDKVRFRQKPVERPGSGAGRTGTYSERTHSRAGSIDETRSFESTERPRSRGAVDAWVRPANEQRRNFQGTKERGFFSNRSSSREGW
Turning to B2, the binding result in assay [4] is given as “no binding”.
